Assay results reported in patent US20100136660A1 (published 2010).

Assays:
Experiment in all cases: phage ELISA
[1] = biological target: GAP-DH (glyceraldehyde-3-phosphate dehydrogenase)
[2] = biological target: keyhole limpet haemocyanin (keyhole limpet)
trypsin inhibitor = biological target: trypsin inhibitor
cytochrome C = biological target: cytochrome C

Measured: binding

B1: human scFv VH14.1/VL14.1 (lysozyme binder from unimmunized library) (scFv, V domains shown)
VH: QVQLQESGPGLVKPSETLSLVCTVSGGSLSFSYWGWIRQPPGKGLEWIGYISHRGTDYNSSLQSRVTISADTSKNQFSLKLSSVTAADTAVYYCARSFSNSFFFGYWGQGT
VL: SSELTQDPAVSVAFGQTVRITCQGDSLRSSYASWYQQKPGQAPLLVIYGENSRPSGIPDRFSGSSSGNTASLTITGAQAEDEADYYCNSRDSRGTHLEVFGG
notes: scFv on phage from pHEN1
no binding (tested: 100 ug/ml coating): all assays above

B2: human scFv VH13.1/VL13.1 (lysozyme binder from unimmunized library) (scFv, V domains shown)
VH: QVQLVQSGAEVKKPGQSLMISCQGSGYSFSNYWIGWVRQMPGKGLEWMGIIYPGDSDTRYSPSFQGQVTISADKSISTAYLHWSSLKASDTALYYCARLVGGTPAYWGQGT
VL: HVILTQPASVSGSPGQSITISCTGSSRDVGGYNYVSWYQHHPGKAPKLLISEVTNRPSGVSNRFSGSKSGNTASLTISGLQAEDEADYFCASYTSSKTYVFGG
notes: scFv on phage from pHEN1
no binding (tested: 100 ug/ml coating): all assays above

Results are given in words; binding and its absence hold for the method and conditions named.
